Assay results from the M2OR odorant receptor database.
The entries are a selection whose mix differs from that of the whole data set. Calls are pooled over several reports, among them a noisy single-well screen. This is one part of the list.

Amino acid sequences for entries named in this document (tags omitted). A change or cut given only in a name is not applied to a line headed by its entry.
UniProt Q96RD3: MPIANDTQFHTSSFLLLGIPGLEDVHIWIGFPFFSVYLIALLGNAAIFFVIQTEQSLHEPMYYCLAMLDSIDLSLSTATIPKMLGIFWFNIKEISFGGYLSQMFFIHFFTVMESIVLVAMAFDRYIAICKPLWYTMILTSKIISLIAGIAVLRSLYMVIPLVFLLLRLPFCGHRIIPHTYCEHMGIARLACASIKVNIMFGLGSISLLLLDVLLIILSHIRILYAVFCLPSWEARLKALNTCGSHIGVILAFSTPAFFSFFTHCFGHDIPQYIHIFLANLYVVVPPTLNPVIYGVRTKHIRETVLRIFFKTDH
UniProt Q8NH60: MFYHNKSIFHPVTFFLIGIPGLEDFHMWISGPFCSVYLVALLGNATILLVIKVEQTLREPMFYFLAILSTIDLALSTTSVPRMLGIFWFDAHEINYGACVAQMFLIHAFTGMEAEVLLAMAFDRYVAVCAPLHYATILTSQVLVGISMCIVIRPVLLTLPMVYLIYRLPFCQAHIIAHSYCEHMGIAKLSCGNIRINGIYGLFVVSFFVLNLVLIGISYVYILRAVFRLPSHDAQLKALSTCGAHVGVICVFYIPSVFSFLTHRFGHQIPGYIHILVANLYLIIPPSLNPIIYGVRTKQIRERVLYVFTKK
UniProt Q8NGH6: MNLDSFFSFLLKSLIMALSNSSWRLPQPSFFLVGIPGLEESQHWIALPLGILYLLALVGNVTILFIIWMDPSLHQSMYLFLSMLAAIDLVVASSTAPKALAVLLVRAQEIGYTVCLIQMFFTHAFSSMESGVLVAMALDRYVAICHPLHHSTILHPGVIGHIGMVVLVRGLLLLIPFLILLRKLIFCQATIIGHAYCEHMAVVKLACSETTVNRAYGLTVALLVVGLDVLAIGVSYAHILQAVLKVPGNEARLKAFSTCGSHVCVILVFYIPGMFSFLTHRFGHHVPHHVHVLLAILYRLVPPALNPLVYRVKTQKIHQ

What was measured:
Details in all cases: stereoisomer not certain
OR52E6 (Homo sapiens) = OR52E6 (Homo sapiens) (UniProt Q96RD3)
In short: (§1)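 Assay methods differ from source to source, frequently being transient luciferase assays in mammalian cell lines. For each receptor–molecule pair, the label responsive (active) applies when the original authors judged the measured signal statistically different from baseline, and non-responsive (inactive) applies otherwise.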

OR52H1 (Homo sapiens) = molecular target: T1, OR52H1 (Homo sapiens) (UniProt Q8NGJ2)
T1 sequence (whole entry): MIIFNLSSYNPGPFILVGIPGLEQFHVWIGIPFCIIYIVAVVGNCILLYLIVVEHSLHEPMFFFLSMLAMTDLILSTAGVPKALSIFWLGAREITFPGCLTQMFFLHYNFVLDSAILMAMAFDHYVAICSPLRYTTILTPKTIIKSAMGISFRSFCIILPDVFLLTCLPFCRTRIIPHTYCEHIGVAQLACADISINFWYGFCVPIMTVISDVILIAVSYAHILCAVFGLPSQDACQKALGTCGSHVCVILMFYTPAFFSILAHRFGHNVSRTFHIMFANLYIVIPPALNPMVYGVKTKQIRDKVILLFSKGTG
In short: as §1

OR52K1 (Homo sapiens) = molecular target: T2, OR52K1 (Homo sapiens) (UniProt Q8NGK4)
T2 sequence (whole entry): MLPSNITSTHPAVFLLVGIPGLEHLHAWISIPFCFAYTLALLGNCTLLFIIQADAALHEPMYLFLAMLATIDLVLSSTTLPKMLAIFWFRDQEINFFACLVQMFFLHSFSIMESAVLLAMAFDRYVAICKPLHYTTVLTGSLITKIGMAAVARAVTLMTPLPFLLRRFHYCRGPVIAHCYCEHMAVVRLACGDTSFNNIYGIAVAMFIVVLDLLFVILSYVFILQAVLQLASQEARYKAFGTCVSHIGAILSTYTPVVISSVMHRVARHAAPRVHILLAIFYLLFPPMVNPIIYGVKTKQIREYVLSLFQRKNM
In short: as §1

OR52K2 (Homo sapiens) = molecular target: T3, OR52K2 (Homo sapiens) (UniProt Q8NGK3)
T3 sequence (whole entry): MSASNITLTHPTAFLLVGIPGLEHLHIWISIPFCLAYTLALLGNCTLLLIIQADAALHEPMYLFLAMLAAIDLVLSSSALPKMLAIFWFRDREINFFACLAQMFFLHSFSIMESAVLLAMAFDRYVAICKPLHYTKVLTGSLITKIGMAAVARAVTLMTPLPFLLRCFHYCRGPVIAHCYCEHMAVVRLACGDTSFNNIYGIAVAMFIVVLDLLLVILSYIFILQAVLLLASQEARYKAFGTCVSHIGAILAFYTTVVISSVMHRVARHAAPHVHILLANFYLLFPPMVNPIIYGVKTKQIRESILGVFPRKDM
In short: as §1

OR52I2 (Homo sapiens) = molecular target: T4, OR52I2 (Homo sapiens) (UniProt Q8NH67)
T4 sequence (whole entry): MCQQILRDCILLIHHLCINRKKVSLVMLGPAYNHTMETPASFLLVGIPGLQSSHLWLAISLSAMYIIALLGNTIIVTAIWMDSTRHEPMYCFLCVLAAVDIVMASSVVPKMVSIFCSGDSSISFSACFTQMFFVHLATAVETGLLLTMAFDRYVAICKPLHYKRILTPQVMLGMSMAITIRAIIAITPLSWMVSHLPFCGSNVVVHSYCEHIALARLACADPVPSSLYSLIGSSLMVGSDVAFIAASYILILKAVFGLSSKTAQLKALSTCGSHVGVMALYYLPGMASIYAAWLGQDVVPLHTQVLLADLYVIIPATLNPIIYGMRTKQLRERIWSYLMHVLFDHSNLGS
In short: as §1

OR52J3 (Homo sapiens) = OR52J3 (Homo sapiens) (UniProt Q8NH60)
In short: as §1

OR52L1 (Homo sapiens) = molecular target: T5, OR52L1 (Homo sapiens) (UniProt Q8NGH7)
T5 sequence (whole entry): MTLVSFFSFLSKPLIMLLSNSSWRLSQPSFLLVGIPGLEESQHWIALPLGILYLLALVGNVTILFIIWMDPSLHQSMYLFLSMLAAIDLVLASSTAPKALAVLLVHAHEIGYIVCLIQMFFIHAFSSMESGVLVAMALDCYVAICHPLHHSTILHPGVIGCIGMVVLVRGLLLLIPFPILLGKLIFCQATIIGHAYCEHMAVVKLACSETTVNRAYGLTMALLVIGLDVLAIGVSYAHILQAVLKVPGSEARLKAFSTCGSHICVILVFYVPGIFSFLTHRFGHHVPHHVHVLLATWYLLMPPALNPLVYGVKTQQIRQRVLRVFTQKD
In short: as §1

OR52L2P (Homo sapiens) = OR52L2P (Homo sapiens) (UniProt Q8NGH6)
In short: as §1

OR52M1 (Homo sapiens) = molecular target: T6, OR52M1 (Homo sapiens) (UniProt Q8NGK5)
T6 sequence (whole entry): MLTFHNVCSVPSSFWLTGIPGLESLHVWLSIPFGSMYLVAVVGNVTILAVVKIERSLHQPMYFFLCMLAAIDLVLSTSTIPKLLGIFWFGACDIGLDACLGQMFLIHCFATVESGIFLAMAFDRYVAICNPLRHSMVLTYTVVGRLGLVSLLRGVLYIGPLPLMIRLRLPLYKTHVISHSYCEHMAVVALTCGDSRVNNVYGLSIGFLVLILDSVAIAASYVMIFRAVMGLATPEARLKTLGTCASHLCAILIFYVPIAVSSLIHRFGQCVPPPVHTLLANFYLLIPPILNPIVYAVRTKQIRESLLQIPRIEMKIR
In short: as §1

Measured: odorant receptor agonist call

CC(=O)OC1CC2CCC1(C)C2(C)C (stereo not drawn)
inactive: OR52E6 (Homo sapiens) | OR52H1 (Homo sapiens) | OR52K1 (Homo sapiens) | OR52K2 (Homo sapiens)

CC12C=CCC1C1CCC3=CC(=O)CCC3(C)C1CC2 (stereo not drawn)
inactive: OR52E6 (Homo sapiens) | OR52H1 (Homo sapiens) | OR52K1 (Homo sapiens) | OR52K2 (Homo sapiens)

CCCCCOC(C)=O
inactive: OR52E6 (Homo sapiens) | OR52H1 (Homo sapiens) | OR52K1 (Homo sapiens) | OR52K2 (Homo sapiens)

CC12CCC(CC1)C(C)(C)O2
inactive: OR52E6 (Homo sapiens) | OR52H1 (Homo sapiens) | OR52K1 (Homo sapiens) | OR52K2 (Homo sapiens)

COc1cc(C=O)ccc1O
inactive: OR52E6 (Homo sapiens) | OR52H1 (Homo sapiens) | OR52K1 (Homo sapiens) | OR52K2 (Homo sapiens)

CCCCCCCCOC(C)=O
inactive: OR52E6 (Homo sapiens) | OR52H1 (Homo sapiens) | OR52K1 (Homo sapiens) | OR52K2 (Homo sapiens)

C=CCSCC=C
inactive: OR52E6 (Homo sapiens) | OR52H1 (Homo sapiens) | OR52K1 (Homo sapiens) | OR52K2 (Homo sapiens)

CCCCO
inactive: OR52E6 (Homo sapiens) | OR52H1 (Homo sapiens) | OR52K1 (Homo sapiens) | OR52K2 (Homo sapiens)

CC(=O)c1ccccc1
inactive: OR52E6 (Homo sapiens) | OR52K1 (Homo sapiens) | OR52K2 (Homo sapiens)

O=C1CCCCC1
inactive: OR52E6 (Homo sapiens) | OR52K1 (Homo sapiens) | OR52K2 (Homo sapiens)

CCC1(O)C2(C)CCC(C2)C1(C)C (stereo not drawn)
inactive: OR52E6 (Homo sapiens) | OR52H1 (Homo sapiens) | OR52K1 (Homo sapiens) | OR52K2 (Homo sapiens)

COc1ccccc1O
inactive: OR52E6 (Homo sapiens) | OR52H1 (Homo sapiens) | OR52K1 (Homo sapiens) | OR52K2 (Homo sapiens)

CCCCCC(C)=O
inactive: OR52E6 (Homo sapiens) | OR52K1 (Homo sapiens) | OR52K2 (Homo sapiens)

CCCCCCCOC(C)=O
inactive: OR52E6 (Homo sapiens) | OR52H1 (Homo sapiens) | OR52K1 (Homo sapiens) | OR52K2 (Homo sapiens)

CC(C)=CCCC(C)=CC=O
inactive: OR52E6 (Homo sapiens) | OR52K1 (Homo sapiens) | OR52K2 (Homo sapiens)
active: OR52H1 (Homo sapiens)

CC(C)(O)CCCC1=CCC(C=O)CC1 (stereo not drawn)
inactive: OR52H1 (Homo sapiens)

COC(=O)c1ccccc1
inactive: OR52E6 (Homo sapiens) | OR52K1 (Homo sapiens) | OR52K2 (Homo sapiens)

CC(=O)OCC=C(C)CCC=C(C)C
active: OR52H1 (Homo sapiens)
inactive: OR52E6 (Homo sapiens) | OR52K1 (Homo sapiens) | OR52K2 (Homo sapiens)

CC(=O)OC(C)(C)C1CC=C(C)CC1 (stereo not drawn)
inactive: OR52E6 (Homo sapiens) | OR52H1 (Homo sapiens) | OR52K1 (Homo sapiens) | OR52K2 (Homo sapiens)

CC1=CCC(C(C)(C)O)CC1 (stereo not drawn)
inactive: OR52E6 (Homo sapiens) | OR52H1 (Homo sapiens) | OR52K1 (Homo sapiens) | OR52K2 (Homo sapiens)

COc1cc(C)ccc1O
inactive: OR52E6 (Homo sapiens) | OR52H1 (Homo sapiens) | OR52K1 (Homo sapiens) | OR52K2 (Homo sapiens)

C=C(C)C1CCC2=CC(=O)CC(C)C2(C)C1 (stereo not drawn)
active: OR52H1 (Homo sapiens)

CC1=NC(C)SC1C (stereo not drawn)
inactive: OR52E6 (Homo sapiens) | OR52K1 (Homo sapiens) | OR52K2 (Homo sapiens)

O=CCc1ccccc1
inactive: OR52E6 (Homo sapiens) | OR52H1 (Homo sapiens) | OR52K1 (Homo sapiens) | OR52K2 (Homo sapiens)

CC12C=CCC1C1CCC3CC(=O)CCC3(C)C1CC2 (stereo not drawn)
not listed: OR52E6 (Homo sapiens) | OR52K1 (Homo sapiens) | OR52K2 (Homo sapiens)
inactive: all other assays above

CC(C)C(=O)O
inactive: OR52H1 (Homo sapiens) | OR52K1 (Homo sapiens) | OR52K2 (Homo sapiens)
active: OR52E6 (Homo sapiens)

CC12CCC(C1)C(C)(C)C2=O (stereo not drawn)
inactive: OR52E6 (Homo sapiens) | OR52H1 (Homo sapiens) | OR52K1 (Homo sapiens) | OR52K2 (Homo sapiens)

CCCCCCCCCC=O
inactive: OR52E6 (Homo sapiens) | OR52H1 (Homo sapiens) | OR52K1 (Homo sapiens) | OR52K2 (Homo sapiens)

c1ccc(Oc2ccccc2)cc1
inactive: OR52E6 (Homo sapiens) | OR52H1 (Homo sapiens) | OR52K1 (Homo sapiens) | OR52K2 (Homo sapiens)

C=CCc1ccc(OC)c(OC)c1
inactive: OR52E6 (Homo sapiens) | OR52H1 (Homo sapiens) | OR52K1 (Homo sapiens) | OR52K2 (Homo sapiens)

CCCCCCOC(=O)CCC
inactive: OR52E6 (Homo sapiens) | OR52H1 (Homo sapiens) | OR52K1 (Homo sapiens) | OR52K2 (Homo sapiens)

C=CCc1ccc(OC(C)=O)c(OC)c1
active: OR52H1 (Homo sapiens)
inactive: OR52E6 (Homo sapiens) | OR52K1 (Homo sapiens) | OR52K2 (Homo sapiens)

CCCCCC(=O)O
inactive: OR52E6 (Homo sapiens) | OR52H1 (Homo sapiens) | OR52K1 (Homo sapiens) | OR52K2 (Homo sapiens)
